According to the supplement of paper PMC10849652:
Some of the results follow.

Protein sequences, listed by entry. Tags and fused reporters are not part of them. Lines headed by an entry give the natural chain unless they say otherwise; changes in a name come on top.
UniProt Q15111: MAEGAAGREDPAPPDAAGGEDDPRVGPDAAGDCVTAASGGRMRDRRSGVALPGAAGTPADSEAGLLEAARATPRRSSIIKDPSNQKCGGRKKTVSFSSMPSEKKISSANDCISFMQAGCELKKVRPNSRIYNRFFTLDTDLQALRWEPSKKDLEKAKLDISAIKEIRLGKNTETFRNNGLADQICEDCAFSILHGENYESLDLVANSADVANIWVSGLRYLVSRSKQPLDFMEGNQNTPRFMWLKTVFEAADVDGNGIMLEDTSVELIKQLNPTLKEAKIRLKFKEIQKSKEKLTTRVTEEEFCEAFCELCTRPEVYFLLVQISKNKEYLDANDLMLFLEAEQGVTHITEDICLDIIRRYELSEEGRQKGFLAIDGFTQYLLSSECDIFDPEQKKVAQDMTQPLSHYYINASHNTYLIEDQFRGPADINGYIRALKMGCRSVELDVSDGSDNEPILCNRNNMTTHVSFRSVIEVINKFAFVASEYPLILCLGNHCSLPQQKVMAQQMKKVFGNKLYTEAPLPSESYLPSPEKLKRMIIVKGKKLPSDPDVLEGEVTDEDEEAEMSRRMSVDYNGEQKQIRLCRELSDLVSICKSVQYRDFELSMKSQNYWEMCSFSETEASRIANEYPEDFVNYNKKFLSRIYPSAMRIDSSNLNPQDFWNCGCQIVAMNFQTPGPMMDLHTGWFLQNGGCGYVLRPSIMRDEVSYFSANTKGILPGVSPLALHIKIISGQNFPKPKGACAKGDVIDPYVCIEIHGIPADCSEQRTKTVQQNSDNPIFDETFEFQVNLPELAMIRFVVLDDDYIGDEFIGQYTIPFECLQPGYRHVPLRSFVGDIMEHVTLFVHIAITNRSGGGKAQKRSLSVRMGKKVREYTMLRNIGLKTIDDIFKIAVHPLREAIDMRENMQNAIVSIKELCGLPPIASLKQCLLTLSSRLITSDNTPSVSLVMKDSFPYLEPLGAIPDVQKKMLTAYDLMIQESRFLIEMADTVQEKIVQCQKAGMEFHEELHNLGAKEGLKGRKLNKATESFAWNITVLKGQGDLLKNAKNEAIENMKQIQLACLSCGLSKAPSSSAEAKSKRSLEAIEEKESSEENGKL
UniProt Q8IV08: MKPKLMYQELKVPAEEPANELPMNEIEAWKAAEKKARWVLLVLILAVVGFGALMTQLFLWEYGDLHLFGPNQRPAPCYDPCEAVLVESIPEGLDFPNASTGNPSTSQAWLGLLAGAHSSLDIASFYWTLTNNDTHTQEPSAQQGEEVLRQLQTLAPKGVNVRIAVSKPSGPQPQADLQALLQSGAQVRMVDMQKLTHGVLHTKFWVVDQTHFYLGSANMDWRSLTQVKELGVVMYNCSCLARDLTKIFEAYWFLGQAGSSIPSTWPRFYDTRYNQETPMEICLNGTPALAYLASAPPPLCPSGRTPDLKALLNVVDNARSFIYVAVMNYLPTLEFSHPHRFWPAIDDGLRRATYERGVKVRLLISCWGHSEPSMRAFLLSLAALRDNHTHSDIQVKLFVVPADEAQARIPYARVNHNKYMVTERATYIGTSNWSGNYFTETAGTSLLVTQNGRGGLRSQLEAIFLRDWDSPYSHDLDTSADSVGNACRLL
UniProt Q9Y2I7: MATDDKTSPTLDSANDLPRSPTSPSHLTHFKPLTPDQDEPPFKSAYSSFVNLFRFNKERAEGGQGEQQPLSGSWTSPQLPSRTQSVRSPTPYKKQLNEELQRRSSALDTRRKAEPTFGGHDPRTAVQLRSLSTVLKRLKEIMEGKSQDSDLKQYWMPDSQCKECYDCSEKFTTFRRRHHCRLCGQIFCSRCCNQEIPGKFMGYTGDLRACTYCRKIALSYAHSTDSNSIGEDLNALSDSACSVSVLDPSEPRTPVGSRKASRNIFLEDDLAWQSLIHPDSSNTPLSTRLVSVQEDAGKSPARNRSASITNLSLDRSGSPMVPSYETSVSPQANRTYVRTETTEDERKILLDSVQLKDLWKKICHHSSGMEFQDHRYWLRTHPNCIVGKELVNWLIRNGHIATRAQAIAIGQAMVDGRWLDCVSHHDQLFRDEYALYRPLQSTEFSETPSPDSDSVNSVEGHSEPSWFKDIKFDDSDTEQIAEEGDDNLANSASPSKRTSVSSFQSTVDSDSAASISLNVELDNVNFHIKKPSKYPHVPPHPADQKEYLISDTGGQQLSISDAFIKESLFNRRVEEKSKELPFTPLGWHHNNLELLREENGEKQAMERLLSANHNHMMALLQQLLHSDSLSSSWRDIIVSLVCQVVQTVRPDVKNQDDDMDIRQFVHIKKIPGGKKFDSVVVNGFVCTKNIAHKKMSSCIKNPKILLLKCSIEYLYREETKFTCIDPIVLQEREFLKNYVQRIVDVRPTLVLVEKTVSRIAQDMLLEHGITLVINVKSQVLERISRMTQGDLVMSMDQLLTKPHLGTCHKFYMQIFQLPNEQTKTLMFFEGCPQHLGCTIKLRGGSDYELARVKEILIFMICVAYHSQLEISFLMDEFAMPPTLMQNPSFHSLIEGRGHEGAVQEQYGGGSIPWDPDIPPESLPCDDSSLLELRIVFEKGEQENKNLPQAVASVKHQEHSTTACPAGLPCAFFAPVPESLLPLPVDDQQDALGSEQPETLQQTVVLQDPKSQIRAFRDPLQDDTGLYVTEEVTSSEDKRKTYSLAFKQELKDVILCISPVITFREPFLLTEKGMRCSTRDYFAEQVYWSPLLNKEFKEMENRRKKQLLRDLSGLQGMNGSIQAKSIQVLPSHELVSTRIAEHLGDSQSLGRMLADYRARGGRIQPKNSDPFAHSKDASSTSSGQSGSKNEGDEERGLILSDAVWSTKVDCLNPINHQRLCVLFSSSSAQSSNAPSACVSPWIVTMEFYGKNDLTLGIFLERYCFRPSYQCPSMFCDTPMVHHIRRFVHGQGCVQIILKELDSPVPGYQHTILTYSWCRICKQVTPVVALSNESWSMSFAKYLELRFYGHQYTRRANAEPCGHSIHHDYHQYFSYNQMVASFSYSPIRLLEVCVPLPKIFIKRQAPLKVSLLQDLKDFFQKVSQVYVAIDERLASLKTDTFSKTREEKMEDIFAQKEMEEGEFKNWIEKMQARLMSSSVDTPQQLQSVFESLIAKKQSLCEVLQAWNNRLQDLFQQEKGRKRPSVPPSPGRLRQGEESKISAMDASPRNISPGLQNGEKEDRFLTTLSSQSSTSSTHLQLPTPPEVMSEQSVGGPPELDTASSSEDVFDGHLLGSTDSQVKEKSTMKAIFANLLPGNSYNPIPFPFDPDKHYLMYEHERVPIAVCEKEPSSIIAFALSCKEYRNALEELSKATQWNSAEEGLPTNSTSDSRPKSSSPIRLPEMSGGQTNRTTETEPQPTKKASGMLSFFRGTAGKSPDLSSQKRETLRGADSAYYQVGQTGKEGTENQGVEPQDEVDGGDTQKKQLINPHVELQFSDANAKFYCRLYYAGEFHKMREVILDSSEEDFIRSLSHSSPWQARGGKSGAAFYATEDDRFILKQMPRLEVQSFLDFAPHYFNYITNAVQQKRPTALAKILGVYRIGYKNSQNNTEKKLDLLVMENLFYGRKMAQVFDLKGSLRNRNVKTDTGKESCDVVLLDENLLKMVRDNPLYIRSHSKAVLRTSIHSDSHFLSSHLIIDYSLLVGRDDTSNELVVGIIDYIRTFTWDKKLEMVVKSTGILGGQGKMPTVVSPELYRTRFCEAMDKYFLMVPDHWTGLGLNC
UniProt P12273: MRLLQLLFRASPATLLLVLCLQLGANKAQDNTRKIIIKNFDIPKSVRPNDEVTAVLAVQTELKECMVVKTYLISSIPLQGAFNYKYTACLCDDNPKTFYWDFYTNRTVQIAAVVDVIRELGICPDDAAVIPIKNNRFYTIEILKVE
UniProt Q99570, whole entry, looked up: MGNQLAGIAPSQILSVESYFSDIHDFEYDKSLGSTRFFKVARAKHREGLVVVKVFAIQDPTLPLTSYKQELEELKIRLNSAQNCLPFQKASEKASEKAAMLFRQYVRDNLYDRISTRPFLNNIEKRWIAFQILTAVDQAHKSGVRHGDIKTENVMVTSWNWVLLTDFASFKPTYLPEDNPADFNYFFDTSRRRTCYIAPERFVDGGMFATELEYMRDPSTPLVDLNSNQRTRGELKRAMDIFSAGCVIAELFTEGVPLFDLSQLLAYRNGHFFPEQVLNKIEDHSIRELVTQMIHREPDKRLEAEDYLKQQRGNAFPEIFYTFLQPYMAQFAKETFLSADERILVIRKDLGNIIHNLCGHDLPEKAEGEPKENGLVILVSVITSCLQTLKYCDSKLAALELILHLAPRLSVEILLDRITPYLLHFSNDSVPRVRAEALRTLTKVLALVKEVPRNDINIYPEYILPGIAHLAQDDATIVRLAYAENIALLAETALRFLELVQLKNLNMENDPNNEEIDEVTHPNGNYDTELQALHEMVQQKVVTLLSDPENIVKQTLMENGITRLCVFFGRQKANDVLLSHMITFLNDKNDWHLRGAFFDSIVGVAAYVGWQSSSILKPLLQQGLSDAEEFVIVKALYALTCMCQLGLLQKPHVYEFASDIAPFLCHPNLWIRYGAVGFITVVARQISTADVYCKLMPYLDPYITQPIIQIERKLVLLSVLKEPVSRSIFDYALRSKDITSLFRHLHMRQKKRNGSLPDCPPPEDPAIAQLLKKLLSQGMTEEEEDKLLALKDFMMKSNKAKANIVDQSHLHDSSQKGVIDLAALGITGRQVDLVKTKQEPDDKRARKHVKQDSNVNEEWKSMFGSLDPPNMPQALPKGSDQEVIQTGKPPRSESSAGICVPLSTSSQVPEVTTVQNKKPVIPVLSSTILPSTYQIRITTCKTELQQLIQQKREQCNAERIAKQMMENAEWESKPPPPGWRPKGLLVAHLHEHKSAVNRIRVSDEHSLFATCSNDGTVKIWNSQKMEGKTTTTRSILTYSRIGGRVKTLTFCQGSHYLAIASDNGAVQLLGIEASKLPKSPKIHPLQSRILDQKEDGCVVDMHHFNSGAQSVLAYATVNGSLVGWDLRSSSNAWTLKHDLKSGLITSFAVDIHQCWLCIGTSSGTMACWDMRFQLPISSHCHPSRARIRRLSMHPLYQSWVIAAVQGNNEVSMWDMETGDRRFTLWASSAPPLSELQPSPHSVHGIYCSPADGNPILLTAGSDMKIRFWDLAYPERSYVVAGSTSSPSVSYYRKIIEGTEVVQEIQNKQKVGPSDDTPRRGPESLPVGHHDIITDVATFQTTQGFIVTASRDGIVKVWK
UniProt O95336: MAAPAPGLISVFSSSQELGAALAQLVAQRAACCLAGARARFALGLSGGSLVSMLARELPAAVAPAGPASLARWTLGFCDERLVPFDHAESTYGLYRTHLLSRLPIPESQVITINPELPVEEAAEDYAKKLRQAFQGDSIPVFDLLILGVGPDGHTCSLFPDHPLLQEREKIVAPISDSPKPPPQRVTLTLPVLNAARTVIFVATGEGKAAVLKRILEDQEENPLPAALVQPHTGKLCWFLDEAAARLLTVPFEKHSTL
UniProt O43175: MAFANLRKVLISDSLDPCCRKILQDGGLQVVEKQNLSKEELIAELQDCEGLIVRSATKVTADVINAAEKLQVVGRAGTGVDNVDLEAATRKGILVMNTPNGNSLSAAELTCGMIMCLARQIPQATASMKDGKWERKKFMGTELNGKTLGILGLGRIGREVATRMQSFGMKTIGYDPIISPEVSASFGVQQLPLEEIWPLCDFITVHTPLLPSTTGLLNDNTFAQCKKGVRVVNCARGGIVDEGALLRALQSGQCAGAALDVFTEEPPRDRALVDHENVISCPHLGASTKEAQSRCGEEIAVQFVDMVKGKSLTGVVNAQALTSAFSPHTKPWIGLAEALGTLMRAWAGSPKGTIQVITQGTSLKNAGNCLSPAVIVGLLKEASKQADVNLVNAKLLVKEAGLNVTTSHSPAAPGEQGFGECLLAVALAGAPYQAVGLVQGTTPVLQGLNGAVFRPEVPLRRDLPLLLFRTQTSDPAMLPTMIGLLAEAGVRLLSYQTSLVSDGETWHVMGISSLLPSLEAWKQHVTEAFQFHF
UniProt Q96G03: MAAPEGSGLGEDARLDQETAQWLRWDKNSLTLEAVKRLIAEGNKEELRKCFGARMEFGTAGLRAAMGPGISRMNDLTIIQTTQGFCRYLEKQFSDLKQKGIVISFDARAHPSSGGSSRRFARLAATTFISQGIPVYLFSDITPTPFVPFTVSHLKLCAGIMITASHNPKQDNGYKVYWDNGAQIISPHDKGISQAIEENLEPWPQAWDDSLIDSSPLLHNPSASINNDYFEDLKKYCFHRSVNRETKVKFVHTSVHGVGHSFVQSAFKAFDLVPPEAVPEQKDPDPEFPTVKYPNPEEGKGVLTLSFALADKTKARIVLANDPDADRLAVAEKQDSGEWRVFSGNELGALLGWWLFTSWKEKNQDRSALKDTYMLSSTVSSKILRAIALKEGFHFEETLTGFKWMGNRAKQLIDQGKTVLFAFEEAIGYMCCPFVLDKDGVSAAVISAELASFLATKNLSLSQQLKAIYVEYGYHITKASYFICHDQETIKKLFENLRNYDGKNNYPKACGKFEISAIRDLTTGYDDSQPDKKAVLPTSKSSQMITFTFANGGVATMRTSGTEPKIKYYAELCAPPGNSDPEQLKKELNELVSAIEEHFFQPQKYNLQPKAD

Tests used:
Test in all cases: log2 fold change, soluble protein after heating vs DMSO (PISA); higher = thermal stabilisation; K562 lysate, 10 uM; active = over 0.2 and 3.5 SD of the protein, either way, in both replicates (recomputed)
vemurafenib = compound: CCCS(=O)(=O)Nc1ccc(F)c(C(=O)c2c[nH]c3ncc(-c4ccc(Cl)cc4)cc23)c1F [vemurafenib]
Procedure, shortened: (§1)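 The values are log-two fold changes in thermal stability compared with solvent controls and come from duplicates. They were obtained by TMTpro 16plex LC-MS/MS, with channel sums equalised, on the supernatant after 21,000xg for 90 min. That supernatant came from crude K562 extract at 1 mg/mL protein treated with 10 μM compound for 30 min, heated for 3 min across 48°C-58°C, pooled and brought to 0.5% NP-40 at 4°C.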

[1] = compound: CCCS(=O)(=O)Nc1ccc(F)c(C(=O)c2c[nH]c3ncc(Cl)cc23)c1F
Procedure, shortened: as §1

barasertib = compound: CCN(CCCOc1ccc2c(Nc3cc(CC(=O)Nc4cccc(F)c4)[nH]n3)ncnc2c1)CCOP(=O)(O)O [barasertib]
Procedure, shortened: as §1

[2] = compound: CC[C@@H]1C(=O)N(C)c2cnc(Nc3ccc(C(=O)NC4CCN(C)CC4)cc3OC)nc2N1C1CCCC1
Procedure, shortened: as §1

volasertib = compound: CC[C@@H]1C(=O)N(C)c2cnc(Nc3ccc(C(=O)N[C@H]4CC[C@H](N5CCN(CC6CC6)CC5)CC4)cc3OC)nc2N1C(C)C [volasertib]
Procedure, shortened: as §1

[3] = compound: CCn1c(C(=O)N(C2CC2)C2CC2)cc2c3c(ncn3C)c(Nc3cc(C)n(C)n3)nc21
Procedure, shortened: as §1

[4] = compound: CCn1cc(-c2ccnc3[nH]c(-c4cccc(CN(C)C)c4)cc23)c(-c2ccc(NC(=O)N(C)C)cc2)n1
Procedure, shortened: as §1

[5] = compound: CN1CCC(CNc2ccc3ncc(-c4cccc(OC(F)(F)F)c4)n3n2)CC1
Procedure, shortened: as §1

saracatinib = compound: CN1CCN(CCOc2cc(OC3CCOCC3)c3c(Nc4c(Cl)ccc5c4OCO5)ncnc3c2)CC1 [saracatinib]
Procedure, shortened: as §1

sotrastaurin = compound: CN1CCN(c2nc(C3=C(c4c[nH]c5ccccc45)C(=O)NC3=O)c3ccccc3n2)CC1 [sotrastaurin]
Procedure, shortened: as §1

Measured: log2 fold change

PLCL1 (UniProt Q15111)
inactive: vemurafenib -0.015 | [1] 0.031 | barasertib 0.09 | [2] -0.038 | volasertib -0.07 | [3] -0.079 | [4] -0.015 | [5] -0.056 | saracatinib 0.038 | sotrastaurin -0.005

PHKA1 (UniProt P46020)
inactive: vemurafenib -0.021 | [1] 0.009 | barasertib 0.089 | [2] 0.044 | volasertib -0.074 | [3] 0.074 | [4] -0.067 | [5] 0.079 | saracatinib -0.009 | sotrastaurin -0.019

PIGT (UniProt Q969N2)
inactive: vemurafenib 0.05 | [1] 0.02 | barasertib 0.014 | [2] -0.026 | volasertib -0.013 | [3] 0 | [4] -0.097 | [5] 0.01 | saracatinib 0.012 | sotrastaurin 0.014

PLD3 (UniProt Q8IV08)
inactive: vemurafenib 0 | [1] 0.017 | barasertib 0.001 | [2] 0.005 | volasertib -0.004 | [3] -0.007 | [4] -0.106 | [5] 0.103 | saracatinib -0.083 | sotrastaurin -0.002

PHF10 (UniProt Q8WUB8)
inactive: vemurafenib 0.038 | [1] -0.01 | barasertib -0.047 | [2] -0.012 | volasertib 0.016 | [3] -0.107 | [4] -0.038 | [5] 0.029 | saracatinib -0.015 | sotrastaurin -0.013

PGRMC2 isoform 2 (UniProt O15173)
inactive: vemurafenib -0.001 | [1] -0.006 | barasertib 0.001 | [2] 0.024 | volasertib 0.043 | [3] -0.034 | [4] -0.03 | [5] 0.049 | saracatinib -0.015 | sotrastaurin 0.004

PIKFYVE (UniProt Q9Y2I7)
inactive: vemurafenib -0.022 | [1] 0.042 | barasertib 0.26 | [2] -0.036 | volasertib -0.047 | [3] 0.04 | [4] -0.056 | [5] 0.038 | saracatinib 0.054 | sotrastaurin 0.038

PITPNA (UniProt Q00169)
inactive: vemurafenib -0.034 | [1] -0.002 | barasertib -0.005 | [2] -0.038 | volasertib 0.024 | [3] 0.005 | [4] 0.141 | [5] -0.114 | saracatinib 0.005 | sotrastaurin 0.011

PIN4 isoform 2 (UniProt Q9Y237)
inactive: vemurafenib 0.008 | [1] -0.01 | barasertib 0.01 | [2] 0.057 | volasertib 0.022 | [3] -0.067 | [4] -0.067 | [5] 0.011 | saracatinib 0.023 | sotrastaurin 0.058

PIP (UniProt P12273)
inactive: vemurafenib 0.094 | [1] -0.453 | barasertib -0.066 | [2] -0.129 | volasertib -0.567 | [3] -0.063 | [4] 0.246 | [5] -0.591 | saracatinib 0.006 | sotrastaurin -0.225

PIK3C3 (UniProt Q8NEB9)
inactive: vemurafenib 0.032 | [1] 0.019 | barasertib -0.012 | [2] 0.098 | volasertib -0.025 | [3] -0.075 | [4] -0.226 | [5] 0.121 | saracatinib 0.008 | sotrastaurin 0.007

PGK1 (UniProt P00558)
inactive: vemurafenib 0 | [1] -0.011 | barasertib -0.02 | [2] -0.013 | volasertib -0.006 | [3] -0.009 | [4] 0.082 | [5] -0.005 | saracatinib 0.003 | sotrastaurin -0.015

PHACTR4 isoform 2 (UniProt Q8IZ21)
inactive: vemurafenib 0.011 | [1] 0.011 | barasertib -0.008 | [2] 0.065 | volasertib 0.023 | [3] -0.003 | [5] -0.178 | saracatinib 0 | sotrastaurin 0.013
active: [4] 0.836

PLEKHA5 isoform 6 (UniProt Q9HAU0)
inactive: vemurafenib 0.003 | [1] -0.003 | barasertib 0.043 | [2] -0.005 | volasertib 0.003 | [3] 0.026 | [4] -0.117 | [5] -0.088 | saracatinib 0.027 | sotrastaurin 0.02

PHB2 (UniProt Q99623)
inactive: vemurafenib 0.002 | [1] -0.004 | barasertib -0.015 | [2] -0.002 | volasertib 0.041 | [3] -0.002 | [4] -0.065 | [5] 0.013 | saracatinib -0.012 | sotrastaurin -0.013

PIK3R4 (UniProt Q99570)
inactive: vemurafenib 0.008 | [1] 0.019 | barasertib 0.006 | [2] 0.031 | volasertib -0.066 | [3] -0.018 | [4] -0.052 | [5] 0.026 | saracatinib 0.015 | sotrastaurin 0.019

PGLS (UniProt O95336)
inactive: vemurafenib -0.033 | [1] -0.027 | barasertib 0.067 | [2] -0.055 | volasertib 0.027 | [3] 0.036 | [4] 0.051 | [5] -0.114 | saracatinib 0.039 | sotrastaurin 0.006

PHRF1 (UniProt Q9P1Y6)
inactive: vemurafenib 0.062 | [1] 0.1 | barasertib 0.006 | [2] 0.077 | volasertib -0.038 | [3] 0.014 | [4] 0.126 | [5] -0.07 | saracatinib -0.019 | sotrastaurin -0.008

PHGDH (UniProt O43175)
inactive: vemurafenib -0.005 | [1] -0.001 | barasertib -0.049 | [2] 0.02 | volasertib -0.025 | [3] 0.016 | [4] 0.098 | [5] -0.051 | saracatinib -0.012 | sotrastaurin -0.027

PKNOX1 (UniProt P55347)
inactive: vemurafenib 0.089 | [1] 0.067 | barasertib 0.008 | [2] -0.022 | volasertib -0.029 | [3] -0.068 | [4] -0.01 | [5] 0.052 | saracatinib 0.02 | sotrastaurin -0.003

PHAX (UniProt Q9H814)
inactive: vemurafenib 0.033 | [1] 0.027 | barasertib -0.038 | [2] 0.087 | volasertib 0.006 | [3] -0.023 | [4] -0.039 | [5] 0.042 | saracatinib 0.025 | sotrastaurin 0.014

PICK1 (UniProt Q9NRD5)
inactive: vemurafenib 0.087 | [1] 0.03 | barasertib 0.139 | [2] 0.018 | volasertib -0.014 | [3] 0.01 | [4] -0.153 | [5] 0.089 | saracatinib -0.021 | sotrastaurin -0.028

PGM2L1 (UniProt Q6PCE3)
inactive: vemurafenib 0.017 | [1] 0.003 | barasertib 0 | [2] 0.002 | volasertib 0.015 | [3] -0.044 | [4] -0.048 | [5] 0.029 | saracatinib -0.034 | sotrastaurin 0.025

PGM2 (UniProt Q96G03)
inactive: vemurafenib 0.002 | [1] -0.015 | barasertib -0.001 | [2] 0.013 | volasertib 0.036 | [3] -0.01 | [4] 0.025 | [5] 0.019 | saracatinib -0.015 | sotrastaurin -0.014

PGP (UniProt A6NDG6)
inactive: vemurafenib 0.014 | [1] 0.153 | barasertib -0.017 | [2] -0.005 | volasertib 0.009 | [3] 0.037 | [4] -0.018 | [5] 0.05 | saracatinib -0.034 | sotrastaurin -0.036

PI4K2A (UniProt Q9BTU6)
inactive: vemurafenib -0.025 | [1] 0.037 | barasertib 0.041 | [2] -0.009 | volasertib -0.027 | [3] 0.004 | [4] 0.019 | [5] 0.042 | saracatinib -0.037 | sotrastaurin 0.102

Two records picked at random from those above:
PICK1 (UniProt Q9NRD5)
inactive: vemurafenib 0.087 | [1] 0.03 | barasertib 0.139 | [2] 0.018 | volasertib -0.014 | [3] 0.01 | [4] -0.153 | [5] 0.089 | saracatinib -0.021 | sotrastaurin -0.028

PGM2L1 (UniProt Q6PCE3)
inactive: vemurafenib 0.017 | [1] 0.003 | barasertib 0 | [2] 0.002 | volasertib 0.015 | [3] -0.044 | [4] -0.048 | [5] 0.029 | saracatinib -0.034 | sotrastaurin 0.025

Later entries:

PIK3R1 (UniProt P27986)
inactive: vemurafenib 0.011 | [1] -0.01 | barasertib -0.005 | [2] 0.172 | volasertib 0.016 | [3] 0.023 | [4] -0.037 | saracatinib 0.025 | sotrastaurin 0.056
active: [5] 0.365

PLA2G15 (UniProt Q8NCC3)
inactive: vemurafenib -0.047 | [1] -0.023 | barasertib -0.011 | [2] 0.018 | volasertib -0.005 | [3] 0.041 | [4] -0.009 | [5] 0.011 | saracatinib 0.001 | sotrastaurin 0.021

PIK3R2 (UniProt O00459)
inactive: vemurafenib -0.032 | [1] 0 | barasertib -0.002 | [2] 0.128 | volasertib -0.003 | [3] 0.071 | [4] -0.018 | [5] 0.289 | saracatinib -0.014 | sotrastaurin 0.091

PI4KA (UniProt P42356)
inactive: vemurafenib 0.005 | [1] 0.014 | barasertib 0 | [2] 0.007 | volasertib -0.064 | [3] 0.019 | [4] -0.069 | [5] 0.164 | saracatinib 0.016 | sotrastaurin 0.056
